The experiment deals with NPR1-YN (Arabidopsis thaliana) (UniProt P93002). Nature of the experiment: split reporter; BiFC with split YFP in N. benthamiana leaves, co-expressed with HTB1-mCherry; water (mock) or 1 mM SA for 8 h; confocal imaging of nuclei.

Sequences of proteins named here, by UniProt entry; tags and fusion partners are left off.
UniProt P93002: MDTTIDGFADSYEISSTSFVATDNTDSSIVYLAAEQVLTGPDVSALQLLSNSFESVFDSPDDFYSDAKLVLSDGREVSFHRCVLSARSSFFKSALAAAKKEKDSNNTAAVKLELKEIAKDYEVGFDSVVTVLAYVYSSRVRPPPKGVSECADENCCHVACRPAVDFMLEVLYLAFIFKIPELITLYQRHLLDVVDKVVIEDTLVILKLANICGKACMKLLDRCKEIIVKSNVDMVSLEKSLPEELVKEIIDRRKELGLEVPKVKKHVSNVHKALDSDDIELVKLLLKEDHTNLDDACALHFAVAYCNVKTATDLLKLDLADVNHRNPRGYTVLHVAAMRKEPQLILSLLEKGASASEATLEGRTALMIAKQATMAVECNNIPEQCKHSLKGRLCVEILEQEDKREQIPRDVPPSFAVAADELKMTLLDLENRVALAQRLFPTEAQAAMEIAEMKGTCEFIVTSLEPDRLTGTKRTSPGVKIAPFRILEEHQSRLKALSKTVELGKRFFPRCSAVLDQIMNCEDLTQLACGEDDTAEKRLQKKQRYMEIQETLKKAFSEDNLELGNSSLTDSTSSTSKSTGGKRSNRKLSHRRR
UniProt F4JLS1: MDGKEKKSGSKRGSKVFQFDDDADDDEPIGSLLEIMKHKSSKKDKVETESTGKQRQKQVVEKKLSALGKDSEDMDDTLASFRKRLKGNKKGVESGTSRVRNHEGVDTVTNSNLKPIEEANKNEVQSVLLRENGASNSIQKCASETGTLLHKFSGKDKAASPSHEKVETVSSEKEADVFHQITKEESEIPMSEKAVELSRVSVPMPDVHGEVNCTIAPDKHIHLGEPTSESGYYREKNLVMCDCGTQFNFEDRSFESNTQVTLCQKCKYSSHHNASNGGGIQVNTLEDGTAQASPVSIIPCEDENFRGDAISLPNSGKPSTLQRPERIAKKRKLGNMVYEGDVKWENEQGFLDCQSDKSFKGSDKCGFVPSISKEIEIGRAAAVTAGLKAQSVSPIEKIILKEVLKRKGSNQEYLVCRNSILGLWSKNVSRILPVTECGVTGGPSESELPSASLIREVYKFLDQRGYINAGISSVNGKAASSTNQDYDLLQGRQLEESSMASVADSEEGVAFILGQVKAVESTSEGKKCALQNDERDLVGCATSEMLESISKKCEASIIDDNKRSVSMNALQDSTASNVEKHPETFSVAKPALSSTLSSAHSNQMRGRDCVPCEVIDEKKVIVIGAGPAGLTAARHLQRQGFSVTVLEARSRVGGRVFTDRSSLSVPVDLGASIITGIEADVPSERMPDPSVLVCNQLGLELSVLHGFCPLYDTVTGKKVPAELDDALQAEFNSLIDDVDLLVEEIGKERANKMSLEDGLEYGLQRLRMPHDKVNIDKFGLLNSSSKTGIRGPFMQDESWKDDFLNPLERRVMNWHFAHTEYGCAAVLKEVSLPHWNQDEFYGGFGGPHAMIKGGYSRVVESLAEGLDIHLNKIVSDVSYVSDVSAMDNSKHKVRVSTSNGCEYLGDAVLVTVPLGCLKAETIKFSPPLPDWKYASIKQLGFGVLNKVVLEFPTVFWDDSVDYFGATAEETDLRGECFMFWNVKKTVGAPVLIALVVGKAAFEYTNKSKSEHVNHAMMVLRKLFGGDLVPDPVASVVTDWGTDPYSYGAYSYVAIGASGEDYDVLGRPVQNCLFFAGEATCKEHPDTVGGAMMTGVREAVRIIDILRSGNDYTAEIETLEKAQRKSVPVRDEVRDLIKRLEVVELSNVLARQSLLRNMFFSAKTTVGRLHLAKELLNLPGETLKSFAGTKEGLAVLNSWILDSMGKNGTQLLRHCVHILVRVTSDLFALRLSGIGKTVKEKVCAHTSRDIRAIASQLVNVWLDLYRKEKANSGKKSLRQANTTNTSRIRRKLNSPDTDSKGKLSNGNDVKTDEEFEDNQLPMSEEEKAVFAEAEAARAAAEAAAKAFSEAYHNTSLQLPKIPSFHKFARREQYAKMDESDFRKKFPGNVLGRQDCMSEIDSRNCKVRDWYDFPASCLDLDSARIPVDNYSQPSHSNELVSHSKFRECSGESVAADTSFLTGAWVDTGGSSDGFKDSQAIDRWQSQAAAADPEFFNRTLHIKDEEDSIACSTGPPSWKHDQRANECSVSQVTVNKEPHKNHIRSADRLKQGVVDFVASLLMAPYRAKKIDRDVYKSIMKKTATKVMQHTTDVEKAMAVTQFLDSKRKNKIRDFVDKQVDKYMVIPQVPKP

This is an account of results in PMC11540436.

No constants are given. Whether binding was seen depends on the method and setting. In cells and extracts the contact can be indirect. Some results given as binding are weak or reduced against the parent protein; the word gives no strength.

In the case of LDL3-YC (from UniProt F4JLS1 1-1628), the binding result is “binds”.

B1: BRM.C-YC (domain or fragment, UniProt Q6EVK6 953-2193)
chain: SSVNKYYTLAHAVNEVVVRQPSMLQAGTLRDYQLVGLQWMLSLYNNKLNGILADEMGLGKTVQVMALIAYLMEFKGNYGPHLIIVPNAVLVNWKSELHTWLPSVSCIYYVGTKDQRSKLFSQEVCAMKFNVLVTTYEFIMYDRSKLSKVDWKYIIIDEAQRMKDRESVLARDLDRYRCQRRLLLTGTPLQNDLKELWSLLNLLLPDVFDNRKAFHDWFAQPFQKEGPAHNIEDDWLETEKKVIVIHRLHQILEPFMLRRRVEDVEGSLPAKVSVVLRCRMSAIQSAVYDWIKATGTLRVDPDDEKLRAQKNPIYQAKIYRTLNNRCMELRKACNHPLLNYPYFNDFSKDFLVRSCGKLWILDRILIKLQRTGHRVLLFSTMTKLLDILEEYLQWRRLVYRRIDGTTSLEDRESAIVDFNDPDTDCFIFLLSIRAAGRGLNLQTADTVVIYDPDPNPKNEEQAVARAHRIGQTREVKVIYMEAVVEKLSSHQKEDELRSGGSVDLEDDMAGKDRYIGSIEGLIRNNIQQYKIDMADEVINAGRFDQRTTHEERRMTLETLLHDEERYQETVHDVPSLHEVNRMIARSEEEVELFDQMDEEFDWTEEMTNHEQVPKWLRASTREVNATVADLSKKPSKNMLSSSNLIVQPGGPGGERKRGRPKSKKINYKEIEDDIAGYSEESSEERNIDSGNEEEGDIRQFDDDELTGALGDHQTNKGEFDGENPVCGYDYPPGSGSYKKNPPRDDAGSSGSSPESHRSKEMASPVSSQKFGSLSALDTRPGSVSKRLLDDLEEGEIAASGDSHIDLQRSGSWAHDRDEGDEEQVLQPTIKRKRSIRLRPRQTAERVDGSEMPAAQPLQVDRSYRSKLRTVVDSHSSRQDQSDSSSRLRSVPAKKVASTSKLHVSSPKSGRLNATQLTVEDNAEASRETWDGTSPISSSNAGARMSHIIQKRCKIVISKLQRRIDKEGQQIVPMLTNLWKRIQNGYAAGGVNNLLELREIDHRVERLEYAGVMELASDVQLMLRGAMQFYGFSHEVRSEAKKVHNLFFDLLKMSFPDTDFREARNALSFSGSAPTLVSTPTPRGAGISQGKRQKLVNEPETEPSSPQRSQQRENSRIRVQIPQKETKLGGTTSHTDESPILAHPGELVICKKKRKDREKSGPKTRTGGSSSPVSPPPAMIGRGLRSPVSGGVPRETRLAQQQRWPNQPTHPNNSGAAGDSVGWANPVKRLRTDSGKRRPSHL
For B1, the binding result is on record as “binds”.
